In this test the target is adenosine A2A receptor (Homo sapiens (Human)) (UniProt P29274). Briefly: flow cytometry, 100 nM IgG, HEK293-A2a cells against parent cells. (In general: A flow cytometer gives signals particle by particle.)

No constants are given. Whether binding was seen depends on the method and setting. Some results given as binding are weak or reduced against the parent protein; the word gives no strength.

B1: A2A - 2 (antibody, V domains shown)
VH: EVQLLESGAEVKKPGASVKVSCKASGYTFTGYYMHWVRQAPGQGLEWMGWINPNSGGTNYAQKFQGRVTMTRDTSISTAYMELSSLRSEDTAVYYCARGGPFDYWGQGTMVTVSS
VL: ELTLTQSPAFMSATPGDKVNISCKASQDIDDDMNWYQQKPGEAAIFIIQEATTLVPGIPPRFSGSGYGTDFTLTINNIESEDAAYYFCLQHDNFPMYTFGQGTKLEIK
Turning to B1, the binding entry is “binds”.

The record behind these values is US20210179724A1.
